Laboratory results: the supplement of paper PMC3334620
The full ranking holds about 33,000 sequences; the median of “E-score (-0.5 to 0.5)” is about -0.016, and the highest 2% start at about 0.3. The list shows a part of the results.

Target: T1, Yer184c (UniProt P39961)
T1 sequence: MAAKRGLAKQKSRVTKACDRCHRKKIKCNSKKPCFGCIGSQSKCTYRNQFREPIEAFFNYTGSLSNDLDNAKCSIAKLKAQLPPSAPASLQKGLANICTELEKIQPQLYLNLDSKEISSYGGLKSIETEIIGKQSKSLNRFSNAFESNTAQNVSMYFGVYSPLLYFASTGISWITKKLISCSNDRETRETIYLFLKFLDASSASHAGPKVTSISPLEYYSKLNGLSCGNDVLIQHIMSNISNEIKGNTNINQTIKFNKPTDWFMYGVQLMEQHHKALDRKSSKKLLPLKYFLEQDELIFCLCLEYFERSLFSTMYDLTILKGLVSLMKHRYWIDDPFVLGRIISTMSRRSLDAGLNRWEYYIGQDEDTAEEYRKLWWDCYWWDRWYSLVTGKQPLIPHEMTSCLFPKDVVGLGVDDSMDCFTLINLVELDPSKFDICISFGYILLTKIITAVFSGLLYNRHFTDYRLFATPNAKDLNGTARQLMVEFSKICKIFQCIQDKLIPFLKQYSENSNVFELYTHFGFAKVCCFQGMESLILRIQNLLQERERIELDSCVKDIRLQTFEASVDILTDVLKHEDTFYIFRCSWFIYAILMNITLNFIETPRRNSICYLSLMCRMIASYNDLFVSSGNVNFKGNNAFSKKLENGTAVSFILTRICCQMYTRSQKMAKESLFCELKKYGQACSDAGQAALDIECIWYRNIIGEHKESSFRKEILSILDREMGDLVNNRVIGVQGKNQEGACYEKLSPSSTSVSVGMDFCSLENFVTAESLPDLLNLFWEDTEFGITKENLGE
Test: PBM E-score (8-mer binding enrichment) (E-score (-0.5 to 0.5)); higher = stronger / more preferred TF binding
Details: protein concentration: 100 nM; construct: GST-full length
Summary of the method: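 The E-score, a modified Wilcoxon-Mann-Whitney statistic, was computed by the Universal PBM Analysis Suite for every ungapped eight-base word pooled with its reverse complement. Scans behind it were normalised with masliner after bound GST-tagged yeast transcription factors were detected with fluorescent anti-GST. The proteins, at about 100-200 nM, had been applied to universal all-10-mer Agilent arrays made double-stranded by primer extension.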

| Sequence | PBM E-score |
| --- | --- |
| GATAGCGC | -0.051 |
| ACTACTCG | 0.151 |
| CCGAAGGC | 0.147 |
| CATAGTCC | -0.153 |
| AGAACCAT | 0.0819 |
| GATCTGCA | -0.0753 |
| TAATTTAA | 0.289 |
| ACGCAAGC | -0.0529 |
| TCTTCTAA | 0.129 |
| ATGATCAC | -0.0394 |
| AACATATT | 0.176 |
| GGTCATTA | -0.0833 |
| ACGCCGCT | 0.0292 |
| CACCGTGA | -0.0116 |
| AAACCTAC | -0.106 |
| ACCCGCAG | 0.0868 |
| AAGCCGCC | -0.112 |
| ACTAAGGG | -0.118 |
| AGAGTACC | -0.108 |
| AATACCTC | 0.0393 |
| CTTCTCTA | -0.178 |
| AGCAGTTA | -0.0175 |
| ATTTAGGG | 0.0535 |
| AGGATACT | -0.0918 |
| ACGCATTA | 0.0568 |

| Sequence | PBM E-score |
| --- | --- |
| ACCAGCAT | -0.234 |
| AGAATAGA | 0.095 |
| ACGGAAGT | 0.222 |
| CGGATGTC | 0.279 |
| CCGTCACC | -0.158 |
| ACATCAGG | -0.0431 |
| AGAGGGCT | -0.338 |
| AACGTTCT | 0.0589 |
| ATGCCATA | -0.203 |
| AAAAAAGC | 0.00493 |
| CACTATCC | -0.106 |
| CCGATGGC | 0.0356 |
| GATCGGCA | 0.231 |
| TCGACAGA | -0.147 |
| CAATTCTG | -0.119 |
| TGCTAAAA | 0.0497 |
| CGCGACCC | -0.103 |
| GCTGAATA | 0.022 |
| AATGGTCA | 0.00218 |
| ATTGTTTG | 0.137 |
| TCAGTTCA | -0.123 |
| GTGTGAAC | 0.0687 |
| AACCCTGT | -0.0852 |
| AAGGTAAC | 0.0582 |
| ACTTGCAA | 0.163 |

| Sequence | PBM E-score |
| --- | --- |
| ATGGGCAA | -0.119 |
| TGGGCACA | -0.107 |
| GATTGCTA | -0.0892 |
| AGCCCTTG | -0.218 |
| TAGATCGA | -0.0162 |
| GGGAGAAC | -0.108 |
| ACGGATTC | 0.197 |
| TATGCGGA | 0.121 |
| CGCACGCA | 0.00217 |
| CAGGGACA | -0.0413 |
| GTATTTCA | 0.111 |
| AGCTCGGA | 0.159 |
| GCTGGCCA | -0.228 |
| CCTACTTA | -0.184 |
| ACAGACAA | 0.3 |
| AGACGGGC | 0.0291 |
| AAGTCTCT | -0.246 |
| ATCTACAG | 0.078 |
| CAATGTGA | 0.00375 |
| GAGCTCAC | -0.108 |
| AAATATCG | 0.194 |
| CGCTGGGA | -0.0711 |
| ACCAAGGT | -0.104 |
| TCTGTAAA | 0.0225 |
| ACCATCCT | -0.21 |

| Sequence | PBM E-score |
| --- | --- |
| CACCCCAC | -0.236 |
| AGTGTTGG | -0.0565 |
| CGTTGTTA | 0.167 |
| GAGGCGCC | -0.0777 |
| CGAGTACG | 0.0148 |
| CAACTACG | -0.118 |
| TAGGAAGA | -0.146 |
| CGTGACGC | -0.0217 |
| CAAACCCC | -0.258 |
| AATCAGCT | 0.0317 |
| AACAGCGT | -0.0227 |
| GTCTCCTA | -0.276 |
| CTGAGGCC | 0.105 |
| TGCTAGAA | 0.035 |
| GAATAAGC | -0.0933 |
| ACAAAGAA | 0.233 |
| ATTAACTG | 0.0978 |
| GATCGGAA | 0.279 |
| GATAATGC | -0.0544 |
| AGGCACAG | -0.163 |
| ATCGGTAA | 0.264 |
| AGCCTTGA | -0.064 |
| CACGGGCG | 0.0256 |
| CTAGGGTC | -0.286 |
| CAGACACA | 0.0397 |

A few values from the list:
Entry of AGGATACT under PBM E-score: -0.0918
Entry of TCAGTTCA under PBM E-score: -0.123
Entry of CACGGGCG under PBM E-score: 0.0256
Entry of GTGTGAAC under PBM E-score: 0.0687
Entry of CACTATCC under PBM E-score: -0.106
Entry of ATGCCATA under PBM E-score: -0.203

(continued)

| Sequence | PBM E-score |
| --- | --- |
| AGTTGCTA | 0.13 |
| CGAATAAA | 0.19 |
| CGAGGCAA | 0.2 |
| TCACTCGA | 0.0168 |
| GCACACGA | 0.00812 |
| CGAGGGCA | -0.0888 |
| ATCGCTAA | 0.0871 |
| ACTTACCG | 0.291 |
| CACCTGTA | -0.112 |
| GGAGGCAC | -0.0737 |
| ATACAAAG | 0.255 |
| ACACAACG | 0.0548 |
| AACTCGCC | 0.00678 |
| ACTAGACC | 0.068 |
| ATCGGTGC | 0.0934 |
| AATCATTC | 0.185 |
| GTGGGTCA | -0.249 |
| AAGGCAGT | -0.0915 |
| AAGGCATA | -0.0013 |
| AAGCCGTA | 0.224 |
| GAATAGAA | 0.174 |
| AGACCGAA | 0.305 |
| CTGCTAAG | -0.162 |
| ACGCATGG | -0.182 |
| GATATCGC | 0.0705 |

| Sequence | PBM E-score |
| --- | --- |
| ACGTACGG | 0.0226 |
| CCTCAGGA | -0.207 |
| GCTCGCAA | -0.0232 |
| AAAACCCA | 0.00491 |
| ACTGGGTG | -0.256 |
| CCTTCTGA | -0.175 |
| ATCTAGAA | 0.154 |
| ACTCTTTC | -0.0892 |
| ACTCGATG | 0.0908 |
| CGCAGGGA | -0.115 |
| CAGGCCTG | 0.059 |
| ATAAGCCC | -0.218 |
| GGATACGA | -0.068 |
| ATGATAAA | 0.271 |
| ATATACGG | 0.109 |
| CCCCAAAA | -0.0885 |
| CTTCGTAA | -0.0866 |
| CCTAATAA | -0.02 |
| CATCTAGG | -0.233 |
| CTGCATTC | -0.0295 |
| CAACACAC | -0.145 |
| AAGTCGTC | -0.132 |
| GACAGAGC | -0.128 |
| AACTGGGA | -0.151 |
| GCTACCCA | -0.203 |

| Sequence | PBM E-score |
| --- | --- |
| AGGGAAAA | -0.0614 |
| AAAAAGGG | -0.0149 |
| AGAGGGTC | -0.245 |
| AGTGTAGA | -0.165 |
| TACCCCTA | -0.234 |
| AGCCGTTC | 0.00576 |
| TAGATCTA | 0.0733 |
| ATATCAAA | 0.253 |
| CGCAAGCG | -0.113 |
| GGTCGGAC | 0.0075 |
| AATGCAGT | -0.055 |
| CCATGTGC | 0.0242 |
| AGCCAGGG | -0.253 |
| ACTGGATG | -0.0807 |
| AGCCTCTC | -0.245 |
| CCACACCG | -0.0036 |
| CCTGCGAC | -0.226 |
| CAGCAGCG | 0.0726 |
| AGATGTTG | -0.0848 |
| ATGAGGGA | -0.345 |
| AGTTTAAA | 0.288 |
| AGGTCGGG | -0.168 |
